Taken from: PubChem BioAssay AID1224830 (NIAID, 2016)

Aim: 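Genes whose knock-down alters the TNF-alpha reporter response to LPS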 (primary screen)
Cells: human THP-1 monocytic leukaemia cells, TNF dual-luciferase reporter clone, PMA-differentiated to macrophage-like cells
Reagent: siRNA pool against human genes, 50 nM
Duration: LPS for 4 h, given about 3 days after siRNA transfection
Treatment: bacterial LPS (TLR4 ligand), 10 ng/ml
Read-out: 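Ratio of firefly to renilla light, scaled to the plate median and expressed as a robust z-score per replicate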
Scale: TNF reporter robust z-score: higher = stronger TNF reporter response to LPS
Call rule: 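a well is active when its z-score exceeds 2.8 or falls below -1.5; control wells carry no call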
The deposit covers about 18,000 reagents; below is a part drawn at random. About 2,900 of all reagents (16%) were called active. 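Calls are made per well; low scores hint the gene aids the LPS response, high scores that it dampens it.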 Entries without a mark were called inactive. Repeated entries: four replicate wells of each siRNA pool. No sequences are given here.

target gene,PubChem SID,TNF reporter robust z-score
TSPOAP1 (TSPO associated protein 1),SID315453158,-1.74 (active)
TSPOAP1 (TSPO associated protein 1),SID315453158,-1.52 (active)
TSPOAP1 (TSPO associated protein 1),SID315453158,-1.56 (active)
TSPOAP1 (TSPO associated protein 1),SID315453158,-1.72 (active)
BANK1 (B cell scaffold protein with ankyrin repeats 1),SID315457353,0.18
BANK1 (B cell scaffold protein with ankyrin repeats 1),SID315457353,-0.01
BANK1 (B cell scaffold protein with ankyrin repeats 1),SID315457353,-0.36
BANK1 (B cell scaffold protein with ankyrin repeats 1),SID315457353,0.66
"RAB27B (RAB27B, member RAS oncogene family)",SID315451017,-0.44
"RAB27B (RAB27B, member RAS oncogene family)",SID315451017,1.07
"RAB27B (RAB27B, member RAS oncogene family)",SID315451017,-0.08
"RAB27B (RAB27B, member RAS oncogene family)",SID315451017,0.45
LECT2 (leukocyte cell derived chemotaxin 2),SID315449749,3.86 (active)
LECT2 (leukocyte cell derived chemotaxin 2),SID315449749,4.55 (active)
LECT2 (leukocyte cell derived chemotaxin 2),SID315449749,3.19 (active)
LECT2 (leukocyte cell derived chemotaxin 2),SID315449749,1.97
EIF3I (eukaryotic translation initiation factor 3 subunit I),SID315452732,-0.43
EIF3I (eukaryotic translation initiation factor 3 subunit I),SID315452732,-1.25
EIF3I (eukaryotic translation initiation factor 3 subunit I),SID315452732,-0.96
EIF3I (eukaryotic translation initiation factor 3 subunit I),SID315452732,-1.5
CCT6A (chaperonin containing TCP1 subunit 6A),SID315447750,0.8
CCT6A (chaperonin containing TCP1 subunit 6A),SID315447750,1.46
CCT6A (chaperonin containing TCP1 subunit 6A),SID315447750,0.34
CCT6A (chaperonin containing TCP1 subunit 6A),SID315447750,-0.08
RNGTT (RNA guanylyltransferase and 5'-phosphatase),SID315452781,-0.34
RNGTT (RNA guanylyltransferase and 5'-phosphatase),SID315452781,1.83
RNGTT (RNA guanylyltransferase and 5'-phosphatase),SID315452781,0.26
RNGTT (RNA guanylyltransferase and 5'-phosphatase),SID315452781,-0.28
APEH (acylaminoacyl-peptide hydrolase),SID315447343,1.19
APEH (acylaminoacyl-peptide hydrolase),SID315447343,0.59
APEH (acylaminoacyl-peptide hydrolase),SID315447343,0.82
APEH (acylaminoacyl-peptide hydrolase),SID315447343,-0.69
"TMLHE (trimethyllysine hydroxylase, epsilon)",SID315457506,-1.11
"TMLHE (trimethyllysine hydroxylase, epsilon)",SID315457506,-0.14
"TMLHE (trimethyllysine hydroxylase, epsilon)",SID315457506,-0.93
"TMLHE (trimethyllysine hydroxylase, epsilon)",SID315457506,0.03
CENPO (centromere protein O),SID315459244,-1.91 (active)
CENPO (centromere protein O),SID315459244,-0.58
CENPO (centromere protein O),SID315459244,-1.25
CENPO (centromere protein O),SID315459244,-1.53 (active)
"CFC1 (cryptic, EGF-CFC family member 1)",SID315457973,-0.02
"CFC1 (cryptic, EGF-CFC family member 1)",SID315457973,0.81
"CFC1 (cryptic, EGF-CFC family member 1)",SID315457973,0.41
"CFC1 (cryptic, EGF-CFC family member 1)",SID315457973,0.67
CPAP (centrosome assembly and centriole elongation protein),SID315457895,0
CPAP (centrosome assembly and centriole elongation protein),SID315457895,0.85
CPAP (centrosome assembly and centriole elongation protein),SID315457895,-0.48
CPAP (centrosome assembly and centriole elongation protein),SID315457895,0.59
SETBP1 (SET binding protein 1),SID315455634,0.6
SETBP1 (SET binding protein 1),SID315455634,3.92 (active)
SETBP1 (SET binding protein 1),SID315455634,0.58
SETBP1 (SET binding protein 1),SID315455634,0.34
CRMP1 (collapsin response mediator protein 1),SID315448095,0.07
CRMP1 (collapsin response mediator protein 1),SID315448095,0.86
CRMP1 (collapsin response mediator protein 1),SID315448095,-0.7
CRMP1 (collapsin response mediator protein 1),SID315448095,-0.07
NTNG2 (netrin G2),SID315460424,-1.09
NTNG2 (netrin G2),SID315460424,-0.73
NTNG2 (netrin G2),SID315460424,-1.23
NTNG2 (netrin G2),SID315460424,-1.55 (active)
"NSF (N-ethylmaleimide sensitive factor, vesicle fusing ATPase)",SID315450314,-0.74
"NSF (N-ethylmaleimide sensitive factor, vesicle fusing ATPase)",SID315450314,-0.03
"NSF (N-ethylmaleimide sensitive factor, vesicle fusing ATPase)",SID315450314,-0.23
"NSF (N-ethylmaleimide sensitive factor, vesicle fusing ATPase)",SID315450314,0.13
MSMO1 (methylsterol monooxygenase 1),SID315451297,3.7 (active)
MSMO1 (methylsterol monooxygenase 1),SID315451297,1.36
MSMO1 (methylsterol monooxygenase 1),SID315451297,2.5
MSMO1 (methylsterol monooxygenase 1),SID315451297,2.15
NHSL3 (NHS like 3),SID315458523,-1.35
NHSL3 (NHS like 3),SID315458523,-0.57
NHSL3 (NHS like 3),SID315458523,-0.66
JRK (Jrk helix-turn-helix protein),SID315452698,-0.22
JRK (Jrk helix-turn-helix protein),SID315452698,0.54
JRK (Jrk helix-turn-helix protein),SID315452698,-0.98
JRK (Jrk helix-turn-helix protein),SID315452698,-0.33
LINC00482 (long independently transcribed non-coding RNA 482),SID315463745,1.66
LINC00482 (long independently transcribed non-coding RNA 482),SID315463745,3.29 (active)
LINC00482 (long independently transcribed non-coding RNA 482),SID315463745,3.16 (active)
LINC00482 (long independently transcribed non-coding RNA 482),SID315463745,0.11
PLAC8L1 (PLAC8 like 1),SID315462576,-1.25
PLAC8L1 (PLAC8 like 1),SID315462576,-0.98
PLAC8L1 (PLAC8 like 1),SID315462576,0.32
PLAC8L1 (PLAC8 like 1),SID315462576,-0.49
TMPRSS6 (transmembrane serine protease 6),SID315462811,0.09
TMPRSS6 (transmembrane serine protease 6),SID315462811,-0.96
TMPRSS6 (transmembrane serine protease 6),SID315462811,-0.59
TMPRSS6 (transmembrane serine protease 6),SID315462811,-0.3
PRMT3 (protein arginine methyltransferase 3),SID315453894,0.55
PRMT3 (protein arginine methyltransferase 3),SID315453894,0.84
PRMT3 (protein arginine methyltransferase 3),SID315453894,0.44
PRMT3 (protein arginine methyltransferase 3),SID315453894,0.68
CSH2 (chorionic somatomammotropin hormone 2),SID315448126,0.08
CSH2 (chorionic somatomammotropin hormone 2),SID315448126,0.8
CSH2 (chorionic somatomammotropin hormone 2),SID315448126,0.77
CSH2 (chorionic somatomammotropin hormone 2),SID315448126,1.24
H2AC18 (H2A clustered histone 18),SID315452489,-0.42
H2AC18 (H2A clustered histone 18),SID315452489,-0.24
H2AC18 (H2A clustered histone 18),SID315452489,-0.71
H2AC18 (H2A clustered histone 18),SID315452489,0.31
THY1 (Thy-1 cell surface antigen),SID315451872,-0.34
THY1 (Thy-1 cell surface antigen),SID315451872,0.4
THY1 (Thy-1 cell surface antigen),SID315451872,-0.3
THY1 (Thy-1 cell surface antigen),SID315451872,-0.63
CRYAB (crystallin alpha B),SID315448102,0.53
CRYAB (crystallin alpha B),SID315448102,-0.03
CRYAB (crystallin alpha B),SID315448102,0.31
CRYAB (crystallin alpha B),SID315448102,-0.64
MARCHF6 (membrane associated ring-CH-type finger 6),SID315453989,-0.98
MARCHF6 (membrane associated ring-CH-type finger 6),SID315453989,0.02
MARCHF6 (membrane associated ring-CH-type finger 6),SID315453989,-0.04
MARCHF6 (membrane associated ring-CH-type finger 6),SID315453989,2.21

Targets listed so far whose target name starts with H or h (4):
target gene,PubChem SID,TNF reporter robust z-score
H2AC18 (H2A clustered histone 18),SID315452489,-0.42
H2AC18 (H2A clustered histone 18),SID315452489,-0.24
H2AC18 (H2A clustered histone 18),SID315452489,-0.71
H2AC18 (H2A clustered histone 18),SID315452489,0.31
